Results published in publication PMC4014424.

Target: T1, biotin-tagged TR4 (orphan nuclear receptor TR4, NR2C2) (UniProt P49117)
T1 sequence (chain, biotin on the biotin recognition sequence (by birA biotin ligase)): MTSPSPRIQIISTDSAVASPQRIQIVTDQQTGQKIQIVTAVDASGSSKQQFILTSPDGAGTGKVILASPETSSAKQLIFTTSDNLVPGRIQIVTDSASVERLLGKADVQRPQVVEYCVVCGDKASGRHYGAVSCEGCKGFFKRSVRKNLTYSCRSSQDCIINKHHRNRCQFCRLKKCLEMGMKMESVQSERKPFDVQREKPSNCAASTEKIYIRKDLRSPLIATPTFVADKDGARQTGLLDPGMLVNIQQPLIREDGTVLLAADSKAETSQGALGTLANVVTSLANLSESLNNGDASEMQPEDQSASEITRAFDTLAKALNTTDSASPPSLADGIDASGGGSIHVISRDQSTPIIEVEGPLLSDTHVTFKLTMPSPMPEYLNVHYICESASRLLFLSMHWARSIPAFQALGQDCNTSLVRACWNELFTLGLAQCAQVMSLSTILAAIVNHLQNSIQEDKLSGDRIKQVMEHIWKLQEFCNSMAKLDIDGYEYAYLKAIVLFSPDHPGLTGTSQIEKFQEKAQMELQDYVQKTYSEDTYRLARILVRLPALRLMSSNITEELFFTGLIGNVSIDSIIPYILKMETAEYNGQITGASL
Experiment: pull-down; streptavidin beads incubated overnight at 4°C with nuclear extracts of MEL cells expressing birA with or without (control) biotin-tagged TR4; washed with PBS plus 0.5% Tween20 and 1X Laemmli sample buffer; bound proteins immunoblotted

- binding: binds weakly
Substance: RXR (mouse (endogenous in MEL))

Results are given in words; binding and its absence hold for the method and conditions named. In cells and extracts the contact can be indirect. Binding calls can cover weak binding; strength is not graded here. Where a sequence is shown, tags or fusion partners need not be part of it.
